# This is one part of the list.
# How the values were obtained:
# [1] = target: Neu5Gc(a2-8)Neu5Gc(a2-6)Gal(b1-4)GlcNAc; test: glycan array binding signal (z-score within array); higher = stronger binding; settings: glycan notation: IUPAC condensed, linker removed
# Outline: (§1)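 Arrays were curated from the Consortium for Functional Glycomics database, 3228 in total, and kept only where the protein sequence was available. Binding is expressed as a within-array Z-score. This score was averaged across arrays of the same protein sequence at different concentrations or buffers and across linkers, and negative values can be read as non-binding.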
# [2] = target: Neu5Gc(b2-6)Gal(b1-4)GlcNAc; test: as above; settings: glycan notation: IUPAC condensed, linker removed
# Outline: as §1
binder,measurement,setting,value
PX14375D-bvu-513-34-513 (Bacteroides vulgatus) (protein) TEDTFWKDETDFNLALTSCYTPLKNALNGGYYGTRGVMLRIARADEVDFRNDISDVYTVNRFTNSNTNSLTQGMFYQFYNALYRTNSIMQKLEEKKEQFSTDFQNSVKGECLFIRGFYLFQLAKEFKDAPLRLTASQSPSTFPLAKSSQADIWAQAKEDLKTAASLLPITNKIGKPTQGAAYAALGKIYVYEENWQEAINVLEPLTQNPYTYKLVEDFNWNFDDTHENNAESIFELLIEDVGGTDLWGDGENINSTQSNTRPKEYAAAEVGGWYEANPTQQIMDIFWKEKDKDGNFDYRARCSVAWDYEGCTYYQRPFREVFAQDKWKTYWILKYQNWKTQKDEPAPPKSFINERAIRYADVLLMLAEAYMNKGALDTSIGYINQIRRRANLNDYSGPITKEGVFEDLVHQRAIEFFVEGERFYDLRRWGLLEQTLKTCDDTRYKNYQTGKSDNINKFNYFPIPAKELDTNPLCTPSEGW,glycan array binding signal (z-score),[1],-0.436
same,glycan array binding signal (z-score),[2],-0.088
